Measurements published in article PMC9785441, “A Broad Spectrum Antiparasitic Activity of Organotin (IV) Derivatives and Its Untargeted Proteomic Profiling Using Leishmania donovani” (Pathogens, 2022).

Legend:
[1] = system: L. donovani intracellular amastigotes; assay: L. donovani intracellular amastigote assay in B10R cells (high content imaging); assay type: cell-based, Leishmania donovani; settings: ratio between CC50 in B10R cells and EC50 against L. donovani intracellular amastigotes
Protocol: For the intracellular amastigote stage assay, L. donovani was incubated at a density of 1 × 10^6 parasites/mL for six days at 29 °C before infection to enrich the proportion of metacyclic promastigotes. B10R monocyte cell lines were cultured in RPMI supplemented with 10% FBS and 1%penicillin/streptomycin at 37 °C in 5% CO2. After 72 h, cells were counted with a hemocytometer and mixed with the six-day-old parasites. Into 384-well assay plates, that had been pre-spotted with compounds diluted 1000-fold in DMSO, with final assay concentrations ranging from 20 µM to 0.02 µM and tested in biological triplicates., 500 B10R cells and 7000 parasites were dispensed per well in a final volume of 50 µL using a Multidrop Combi liquid dispenser (ThermoScientific, Waltham, MA, USA). Plates were incubated at 37 °C and 5% CO2 for 72 h. Cultures were then fixed with 4% formaldehyde solution for 30 min and stained with 0.5 µg/mL DAPI (diamidino-2-phenylindole). Plates were then imaged using an ImageXpress Micro XLS automated high content imager (Molecular Devices, San Jose, CA, USA) using a 10× air objective. A custom image analysis module generated in ImageXpress was used to count the nuclei of host and parasite cells. EC50 values were obtained using the GraphPad Prism 9 Software with biological triplicates.

[2] = system: T. cruzi (infecting C2C12); assay: T. cruzi intracellular amastigote assay in C2C12 cells (high content imaging); assay type: cell-based, Trypanosoma cruzi; settings: ratio between CC50 in C2C12 cell lines and EC50 against T. cruzi intracellular amastigotes
Protocol: Mouse C2C12 myoblasts (ATCC CRL-1772) were cultivated in RPMI 1640 medium supplemented with 5% FBS and kept at 37 °C and 5% CO2. T. cruzi CAI-72 trypomastigotes were obtained from the supernatant of C2C12 cells infected four to seven days previously. For the assay, 500 C2C12 cells were mixed with 7500 T. cruzi parasites and seeded into 384-well plates at a 50 µL final volume. Test compounds and reference drugs (Benznidazole and K11777) were pre-spotted into the 384 well black bottom plates prior to the addition of cells and parasites with final assay concentration of 20 µM to 0.02 µM. The plates were incubated at 37 °C^, 5% CO2 for 72 h. Cultures were then fixed with 4% formaldehyde and 0.5 µg/mL DAPI (diamidino-2-phenylindole) was added for staining nucleic acids. Plates were kept protected from light for 1 h and then imaged in an ImageXpress Micro XLS automated high content imager (Molecular Devices, San Jose, CA, USA). Imaging and data analysis were performed as described for L. donovani amastigotes on biological triplicates.

CCC[CH2][Sn]([CH2]CCC)([O]C(=O)CCC(=O)Nc1ccc(OC)cc1)[O]C(=O)CCC(=O)Nc1ccc(OC)cc1 [MS26Bu2]
SI^a [1]: 3.78
SI^b [2]: 0.27

CCC[CH2][Sn]([CH2]CCC)([CH2]CCC)[O]C(=O)CCC(=O)Nc1ccc(OC)cc1 [MS26Bu3]
SI^a [1]: 0.8
SI^b [2]: 2

CCC[CH2][Sn]([Cl])([Cl])[O]C(=O)CCC(=O)Nc1ccc(OC)cc1 [MS26BuSnCl2]
SI^a [1]: 0.031
SI^b [2]: 0.91

COc1ccc(NC(=O)CCC(=O)[O][Sn]([CH]2CCCCC2)([CH]2CCCCC2)[CH]2CCCCC2)cc1 [MS26Cy3]
SI^a [1]: 0.01
SI^b [2]: 66

C[CH2][Sn]([CH2]C)([CH2]C)[O]C(=O)CCC(=O)Nc1ccc(OC)cc1 [MS26Et3]
SI^a [1]: 13.1
SI^b [2]: 11.7

COc1ccc(NC(=O)CCC(=O)[O][Sn]([CH3])([CH3])[CH3])cc1 [MS26Me3]
SI^a [1]: 1.45
SI^b [2]: 0.47

COc1ccc(NC(=O)CCC(=O)[O][Sn]([c]2ccccc2)([c]2ccccc2)[c]2ccccc2)cc1 [MS26Ph3]
SI^a [1]: 0.1
SI^b [2]: 0.03

C=[CH][Sn]([CH]=C)([O]C(=O)CCC(=O)Nc1ccc(OC)cc1)[O]C(=O)CCC(=O)Nc1ccc(OC)cc1 [MS26vin2]
SI^a [1]: 1
SI^b [2]: 1
